Counter-ions that a name gives are not always drawn. The list shows a part of the results. Hit calls seldom repeat between salt and free forms of one compound.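 Kinases were expressed as nanoluciferase fusions in K562 cells and luminescence was read every 4 h between 2 and 18 h as percent of control, DMSO set to 100% and a positive control to 0%. A time point counts as decreased when the signal drops significantly (2 sigma). The hit call is the authors' own, does not follow from the count of time points alone, and its rule is not shown.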
Columns and labels:
Conditions in all cases: K562, 2-18 h
RET = RET (UniProt P07949); assay: kinase-Nluc reporter destabilization hit call (1 = scored as downregulated) (binary); higher = compound decreases kinase abundance
[1] = target: RET_M918T (clone: RET_mut) (UniProt P07949); assay: as above
RIOK1 = RIOK1 (UniProt Q9BRS2); assay: as above
RIPK1 = RIPK1 (UniProt Q13546); assay: as above
RIPK2 = RIPK2 (UniProt O43353); assay: as above
ROR2 = ROR2 (UniProt Q01974); assay: as above
RPS6KA1 = RPS6KA1 (UniProt Q15418); assay: as above
SPHK1 = SPHK1 (UniProt Q9NYA1); assay: as above
SRC = SRC (UniProt P12931); assay: as above
STK24 = STK24 (UniProt Q9Y6E0); assay: as above
STK38 = STK38 (UniProt Q15208); assay: as above
SYK = SYK (UniProt P43405); assay: as above
TEC = TEC (UniProt P42680); assay: as above
TYK2 = TYK2 (UniProt P29597); assay: as above
ULK3 = ULK3 (UniProt Q6PHR2); assay: as above
YES1 = YES1 (UniProt P07947); assay: as above
ZAK = ZAK (UniProt Q9NYL2); assay: as above
ZAP70 = ZAP70 (UniProt P43403); assay: as above
CDK4 = CDK4 (UniProt P11802); assay: number of time points (of 4; 2 h point missing) at which kinase-Nluc abundance scored as decreased, DMSO-normalised (count); higher = more persistent destabilization
CDK7 = CDK7 (UniProt P50613); assay: as above

The chains behind the UniProt entries cited, without tags or fusion partners. Where a name states a change or a piece, a line headed by the entry shows the natural chain unless it says otherwise.
UniProt Q9BRS2: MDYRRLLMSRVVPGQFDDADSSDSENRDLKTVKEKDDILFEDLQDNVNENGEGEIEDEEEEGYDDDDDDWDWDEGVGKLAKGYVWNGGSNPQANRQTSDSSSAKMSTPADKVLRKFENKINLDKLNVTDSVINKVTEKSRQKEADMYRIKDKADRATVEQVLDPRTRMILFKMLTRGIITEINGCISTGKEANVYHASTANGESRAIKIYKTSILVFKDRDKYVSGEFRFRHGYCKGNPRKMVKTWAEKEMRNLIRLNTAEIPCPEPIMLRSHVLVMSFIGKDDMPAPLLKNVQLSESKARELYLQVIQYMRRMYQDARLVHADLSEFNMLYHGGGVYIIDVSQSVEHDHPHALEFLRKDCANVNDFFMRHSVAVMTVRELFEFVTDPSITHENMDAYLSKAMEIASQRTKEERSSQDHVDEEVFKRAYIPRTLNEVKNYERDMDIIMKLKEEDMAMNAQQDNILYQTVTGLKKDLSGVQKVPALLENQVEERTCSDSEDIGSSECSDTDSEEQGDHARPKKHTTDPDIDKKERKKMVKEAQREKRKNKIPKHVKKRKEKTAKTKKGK
UniProt Q01974, whole entry: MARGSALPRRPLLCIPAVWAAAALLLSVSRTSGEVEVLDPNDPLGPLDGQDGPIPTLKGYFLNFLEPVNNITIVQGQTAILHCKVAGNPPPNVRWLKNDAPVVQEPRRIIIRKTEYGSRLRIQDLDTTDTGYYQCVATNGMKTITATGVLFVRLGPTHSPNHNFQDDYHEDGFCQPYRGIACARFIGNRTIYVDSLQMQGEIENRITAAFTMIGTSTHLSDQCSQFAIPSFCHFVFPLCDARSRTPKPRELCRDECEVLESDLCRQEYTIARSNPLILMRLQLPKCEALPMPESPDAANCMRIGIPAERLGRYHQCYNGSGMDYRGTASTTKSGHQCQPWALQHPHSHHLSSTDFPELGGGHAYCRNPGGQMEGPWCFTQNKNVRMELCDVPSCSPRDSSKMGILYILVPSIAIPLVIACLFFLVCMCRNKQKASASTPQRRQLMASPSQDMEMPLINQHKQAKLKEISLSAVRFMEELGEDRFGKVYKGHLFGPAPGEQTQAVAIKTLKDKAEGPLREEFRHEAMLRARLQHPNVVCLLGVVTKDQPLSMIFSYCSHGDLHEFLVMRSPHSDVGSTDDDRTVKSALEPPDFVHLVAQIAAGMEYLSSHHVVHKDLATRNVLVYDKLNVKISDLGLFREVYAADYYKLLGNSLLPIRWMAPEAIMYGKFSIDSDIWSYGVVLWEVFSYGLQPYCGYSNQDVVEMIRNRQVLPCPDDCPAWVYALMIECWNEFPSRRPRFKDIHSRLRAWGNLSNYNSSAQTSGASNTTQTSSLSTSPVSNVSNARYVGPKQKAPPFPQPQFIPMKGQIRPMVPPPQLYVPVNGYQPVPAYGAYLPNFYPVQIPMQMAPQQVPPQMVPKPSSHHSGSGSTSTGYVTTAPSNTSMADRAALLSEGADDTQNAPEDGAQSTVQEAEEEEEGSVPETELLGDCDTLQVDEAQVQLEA
UniProt Q9NYA1, whole entry: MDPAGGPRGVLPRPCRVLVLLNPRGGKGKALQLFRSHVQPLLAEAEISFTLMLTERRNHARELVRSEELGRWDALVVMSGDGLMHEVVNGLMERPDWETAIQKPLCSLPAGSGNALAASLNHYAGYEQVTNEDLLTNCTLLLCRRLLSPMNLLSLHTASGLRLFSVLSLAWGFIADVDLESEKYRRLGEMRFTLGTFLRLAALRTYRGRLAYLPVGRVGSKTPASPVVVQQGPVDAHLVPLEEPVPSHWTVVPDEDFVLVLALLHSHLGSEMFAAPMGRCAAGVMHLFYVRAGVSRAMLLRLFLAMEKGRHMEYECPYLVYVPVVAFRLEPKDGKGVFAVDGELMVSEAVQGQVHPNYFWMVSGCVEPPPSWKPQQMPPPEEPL
UniProt Q9Y6E0: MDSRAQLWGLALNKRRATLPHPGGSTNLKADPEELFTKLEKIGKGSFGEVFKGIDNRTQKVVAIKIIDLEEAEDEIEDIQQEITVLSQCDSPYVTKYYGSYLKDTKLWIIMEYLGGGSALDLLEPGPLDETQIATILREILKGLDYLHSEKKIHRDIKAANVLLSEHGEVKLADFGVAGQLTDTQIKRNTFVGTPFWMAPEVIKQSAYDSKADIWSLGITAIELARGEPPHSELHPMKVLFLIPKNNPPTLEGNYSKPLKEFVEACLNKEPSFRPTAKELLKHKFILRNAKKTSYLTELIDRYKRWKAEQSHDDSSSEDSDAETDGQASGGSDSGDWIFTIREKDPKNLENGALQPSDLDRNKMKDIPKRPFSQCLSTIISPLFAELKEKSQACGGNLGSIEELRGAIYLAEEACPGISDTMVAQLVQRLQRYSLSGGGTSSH
UniProt P42680: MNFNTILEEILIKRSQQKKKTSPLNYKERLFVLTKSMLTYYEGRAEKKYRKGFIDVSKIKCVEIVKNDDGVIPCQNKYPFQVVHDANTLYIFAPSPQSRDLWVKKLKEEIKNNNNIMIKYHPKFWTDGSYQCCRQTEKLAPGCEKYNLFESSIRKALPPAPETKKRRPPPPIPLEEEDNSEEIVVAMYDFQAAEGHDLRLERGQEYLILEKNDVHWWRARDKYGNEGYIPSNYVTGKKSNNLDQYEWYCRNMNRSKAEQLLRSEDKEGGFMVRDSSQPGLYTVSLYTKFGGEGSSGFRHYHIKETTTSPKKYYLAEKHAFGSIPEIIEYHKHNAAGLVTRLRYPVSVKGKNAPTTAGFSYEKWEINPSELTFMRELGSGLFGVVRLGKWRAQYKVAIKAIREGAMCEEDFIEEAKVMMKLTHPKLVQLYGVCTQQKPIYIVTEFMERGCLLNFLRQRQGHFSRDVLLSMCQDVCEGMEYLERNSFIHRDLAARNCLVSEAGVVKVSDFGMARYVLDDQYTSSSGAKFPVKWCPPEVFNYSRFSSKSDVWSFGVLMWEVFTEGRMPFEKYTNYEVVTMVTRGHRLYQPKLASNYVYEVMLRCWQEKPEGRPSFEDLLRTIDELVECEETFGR
UniProt P29597: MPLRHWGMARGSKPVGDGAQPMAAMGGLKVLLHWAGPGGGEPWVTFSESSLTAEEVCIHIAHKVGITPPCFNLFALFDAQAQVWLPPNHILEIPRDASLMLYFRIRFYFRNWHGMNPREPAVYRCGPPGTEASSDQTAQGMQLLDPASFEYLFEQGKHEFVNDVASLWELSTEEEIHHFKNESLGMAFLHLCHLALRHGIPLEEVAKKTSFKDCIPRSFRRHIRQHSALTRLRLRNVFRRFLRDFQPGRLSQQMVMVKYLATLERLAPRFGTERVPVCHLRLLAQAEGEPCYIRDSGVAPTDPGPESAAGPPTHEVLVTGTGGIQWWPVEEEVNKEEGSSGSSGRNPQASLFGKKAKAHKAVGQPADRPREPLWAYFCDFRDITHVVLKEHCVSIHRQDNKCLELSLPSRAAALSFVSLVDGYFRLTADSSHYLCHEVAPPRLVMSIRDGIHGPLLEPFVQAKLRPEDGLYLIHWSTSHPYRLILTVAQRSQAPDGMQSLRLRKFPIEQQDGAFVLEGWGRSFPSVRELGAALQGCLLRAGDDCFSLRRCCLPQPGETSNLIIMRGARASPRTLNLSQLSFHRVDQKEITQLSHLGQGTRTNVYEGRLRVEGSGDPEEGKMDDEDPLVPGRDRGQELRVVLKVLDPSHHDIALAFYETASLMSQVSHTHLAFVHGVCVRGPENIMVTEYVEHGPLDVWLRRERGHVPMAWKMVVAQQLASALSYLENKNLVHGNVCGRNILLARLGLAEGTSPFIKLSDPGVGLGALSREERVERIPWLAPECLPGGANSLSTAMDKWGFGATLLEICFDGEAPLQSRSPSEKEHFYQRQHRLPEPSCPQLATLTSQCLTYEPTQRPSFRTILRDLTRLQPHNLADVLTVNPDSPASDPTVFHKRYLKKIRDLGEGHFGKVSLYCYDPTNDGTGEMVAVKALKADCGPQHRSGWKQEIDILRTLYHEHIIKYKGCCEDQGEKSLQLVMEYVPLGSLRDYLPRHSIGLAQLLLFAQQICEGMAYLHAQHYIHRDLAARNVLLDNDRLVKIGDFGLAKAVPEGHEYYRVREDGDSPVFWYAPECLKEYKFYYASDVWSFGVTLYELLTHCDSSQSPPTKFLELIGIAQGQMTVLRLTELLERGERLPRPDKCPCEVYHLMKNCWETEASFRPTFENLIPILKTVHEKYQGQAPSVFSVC
UniProt Q6PHR2: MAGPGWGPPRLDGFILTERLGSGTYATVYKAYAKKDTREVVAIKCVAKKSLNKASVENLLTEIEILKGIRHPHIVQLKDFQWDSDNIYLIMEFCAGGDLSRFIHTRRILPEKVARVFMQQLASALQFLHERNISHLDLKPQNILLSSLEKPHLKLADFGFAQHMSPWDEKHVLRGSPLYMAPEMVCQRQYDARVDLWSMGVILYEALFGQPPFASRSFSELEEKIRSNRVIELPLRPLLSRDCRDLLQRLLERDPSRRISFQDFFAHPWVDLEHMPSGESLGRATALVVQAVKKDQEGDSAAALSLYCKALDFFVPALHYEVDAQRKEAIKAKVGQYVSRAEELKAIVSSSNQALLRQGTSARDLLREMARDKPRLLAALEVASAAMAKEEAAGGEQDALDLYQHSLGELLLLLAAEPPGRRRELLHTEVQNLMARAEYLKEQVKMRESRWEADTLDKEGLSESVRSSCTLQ
UniProt P07947, whole entry, looked up: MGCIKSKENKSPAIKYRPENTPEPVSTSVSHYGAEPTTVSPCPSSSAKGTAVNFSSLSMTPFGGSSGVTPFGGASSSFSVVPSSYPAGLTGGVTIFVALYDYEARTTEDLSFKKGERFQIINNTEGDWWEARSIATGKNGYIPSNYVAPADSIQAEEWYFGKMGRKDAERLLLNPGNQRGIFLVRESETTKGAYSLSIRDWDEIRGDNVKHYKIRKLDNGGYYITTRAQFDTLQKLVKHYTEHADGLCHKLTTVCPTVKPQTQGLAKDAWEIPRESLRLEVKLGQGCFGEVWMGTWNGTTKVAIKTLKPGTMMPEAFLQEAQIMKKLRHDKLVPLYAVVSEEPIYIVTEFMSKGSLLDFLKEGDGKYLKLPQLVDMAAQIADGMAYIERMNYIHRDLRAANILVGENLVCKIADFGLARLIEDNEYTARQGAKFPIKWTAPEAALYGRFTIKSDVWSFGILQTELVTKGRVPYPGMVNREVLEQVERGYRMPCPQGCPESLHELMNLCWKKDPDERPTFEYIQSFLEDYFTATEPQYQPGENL
UniProt P43403: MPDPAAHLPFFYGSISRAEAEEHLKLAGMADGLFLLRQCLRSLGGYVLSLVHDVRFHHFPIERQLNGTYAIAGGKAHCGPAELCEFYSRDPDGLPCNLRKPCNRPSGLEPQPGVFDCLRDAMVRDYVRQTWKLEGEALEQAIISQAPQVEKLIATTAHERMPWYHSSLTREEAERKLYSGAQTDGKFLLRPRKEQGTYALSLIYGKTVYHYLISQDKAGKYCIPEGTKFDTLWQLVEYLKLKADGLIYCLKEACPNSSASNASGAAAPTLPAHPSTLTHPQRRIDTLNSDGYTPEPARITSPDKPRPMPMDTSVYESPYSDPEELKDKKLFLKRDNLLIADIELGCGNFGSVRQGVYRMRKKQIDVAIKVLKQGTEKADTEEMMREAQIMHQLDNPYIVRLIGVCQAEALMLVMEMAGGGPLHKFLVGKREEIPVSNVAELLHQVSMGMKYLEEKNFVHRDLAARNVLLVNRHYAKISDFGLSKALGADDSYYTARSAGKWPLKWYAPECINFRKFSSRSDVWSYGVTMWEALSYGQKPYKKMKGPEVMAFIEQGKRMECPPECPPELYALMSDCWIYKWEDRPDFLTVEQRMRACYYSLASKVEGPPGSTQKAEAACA
UniProt P11802: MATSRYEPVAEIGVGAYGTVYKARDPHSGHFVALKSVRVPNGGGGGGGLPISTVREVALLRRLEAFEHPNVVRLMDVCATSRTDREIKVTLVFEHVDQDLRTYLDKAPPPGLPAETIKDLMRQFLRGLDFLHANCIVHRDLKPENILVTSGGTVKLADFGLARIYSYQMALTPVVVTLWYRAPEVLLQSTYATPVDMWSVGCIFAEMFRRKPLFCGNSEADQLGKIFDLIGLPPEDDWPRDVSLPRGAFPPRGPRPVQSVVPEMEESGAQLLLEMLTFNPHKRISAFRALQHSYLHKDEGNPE
UniProt P50613: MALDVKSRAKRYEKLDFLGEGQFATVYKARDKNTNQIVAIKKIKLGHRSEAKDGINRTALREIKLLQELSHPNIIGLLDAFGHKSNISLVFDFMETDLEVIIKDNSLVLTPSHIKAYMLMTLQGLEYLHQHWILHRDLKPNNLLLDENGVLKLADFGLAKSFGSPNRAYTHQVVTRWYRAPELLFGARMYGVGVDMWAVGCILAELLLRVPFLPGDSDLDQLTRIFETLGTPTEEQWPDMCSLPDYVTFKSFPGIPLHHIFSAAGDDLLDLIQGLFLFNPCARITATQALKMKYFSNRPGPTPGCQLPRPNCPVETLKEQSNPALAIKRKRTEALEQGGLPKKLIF

SMILES	kinase-Nluc reporter destabilization hit call (RET; 10 µM)	kinase-Nluc reporter destabilization hit call ([1]; 10 µM)	kinase-Nluc reporter destabilization hit call (RIOK1; 10 µM)	kinase-Nluc reporter destabilization hit call (RIPK1; 10 µM)	kinase-Nluc reporter destabilization hit call (RIPK2; 10 µM)	kinase-Nluc reporter destabilization hit call (ROR2; 10 µM)	kinase-Nluc reporter destabilization hit call (RPS6KA1; 10 µM)	kinase-Nluc reporter destabilization hit call (SPHK1; 10 µM)	kinase-Nluc reporter destabilization hit call (SRC; 10 µM)	kinase-Nluc reporter destabilization hit call (STK24; 10 µM)	kinase-Nluc reporter destabilization hit call (STK38; 10 µM)	kinase-Nluc reporter destabilization hit call (SYK; 10 µM)	kinase-Nluc reporter destabilization hit call (TEC; 10 µM)	kinase-Nluc reporter destabilization hit call (TYK2; 10 µM)	kinase-Nluc reporter destabilization hit call (ULK3; 10 µM)	kinase-Nluc reporter destabilization hit call (YES1; 10 µM)	kinase-Nluc reporter destabilization hit call (ZAK; 10 µM)	kinase-Nluc reporter destabilization hit call (ZAP70; 10 µM)	number of time points (CDK4; 10 µM)	number of time points (CDK7; 10 µM)	kinase-Nluc reporter destabilization hit call (RET; 2.5 µM)	kinase-Nluc reporter destabilization hit call ([1]; 2.5 µM)	kinase-Nluc reporter destabilization hit call (RIOK1; 2.5 µM)	kinase-Nluc reporter destabilization hit call (RIPK1; 2.5 µM)	kinase-Nluc reporter destabilization hit call (RIPK2; 2.5 µM)	kinase-Nluc reporter destabilization hit call (ROR2; 2.5 µM)	kinase-Nluc reporter destabilization hit call (RPS6KA1; 2.5 µM)	kinase-Nluc reporter destabilization hit call (SPHK1; 2.5 µM)	kinase-Nluc reporter destabilization hit call (SRC; 2.5 µM)	kinase-Nluc reporter destabilization hit call (STK24; 2.5 µM)	kinase-Nluc reporter destabilization hit call (STK38; 2.5 µM)	kinase-Nluc reporter destabilization hit call (SYK; 2.5 µM)	kinase-Nluc reporter destabilization hit call (TEC; 2.5 µM)	kinase-Nluc reporter destabilization hit call (TYK2; 2.5 µM)	kinase-Nluc reporter destabilization hit call (ULK3; 2.5 µM)	kinase-Nluc reporter destabilization hit call (YES1; 2.5 µM)	kinase-Nluc reporter destabilization hit call (ZAK; 2.5 µM)	kinase-Nluc reporter destabilization hit call (ZAP70; 2.5 µM)	number of time points (CDK4; 2.5 µM)	number of time points (CDK7; 2.5 µM)
CN(C)C(=N)NC(=N)N [Metformin]	inactive: 0	inactive: 0	inactive: 0	inactive: 0	inactive: 0	inactive: 0	inactive: 0	inactive: 0	inactive: 0	inactive: 0	inactive: 0	inactive: 0	inactive: 0	inactive: 0	inactive: 0	inactive: 0	inactive: 0	inactive: 0	0	0																				
C=CC(=O)N1CCN(c2ncnc3c(F)c(-c4c(O)cccc4F)c(Cl)cc23)CC1	inactive: 0	inactive: 0	inactive: 0	inactive: 0	inactive: 0	inactive: 0	inactive: 0	inactive: 0	inactive: 0	inactive: 0	inactive: 0	inactive: 0	inactive: 0	inactive: 0	inactive: 0	inactive: 0	inactive: 0	inactive: 0	0	0	inactive: 0	inactive: 0	inactive: 0	inactive: 0	inactive: 0	inactive: 0	inactive: 0	inactive: 0	inactive: 0	inactive: 0	inactive: 0	inactive: 0	inactive: 0	inactive: 0	inactive: 0	inactive: 0	inactive: 0	inactive: 0	0	0
CNC(=O)c1ccccc1Nc1cc(Nc2ccc(N3CCOCC3)cc2OC)ncc1C(F)(F)F [PND-1186 (hydrochloride)]	inactive: 0	inactive: 0	inactive: 0	inactive: 0	inactive: 0	inactive: 0	inactive: 0	inactive: 0	inactive: 0	inactive: 0	inactive: 0	inactive: 0	inactive: 0	inactive: 0	inactive: 0	inactive: 0	inactive: 0	inactive: 0	0	0																				
CNC(=O)c1ccc(Nc2ncc(C(F)(F)F)c(NCc3nccnc3N(C)S(C)(=O)=O)n2)cc1 [Defactinib (hydrochloride)]	inactive: 0	inactive: 0	inactive: 0	inactive: 0	inactive: 0	inactive: 0	inactive: 0	inactive: 0	inactive: 0	inactive: 0	inactive: 0	inactive: 0	inactive: 0	inactive: 0	inactive: 0	inactive: 0	inactive: 0	inactive: 0	0	0																				
C[C@@H](N)c1ccc(C(=O)Nc2ccnc3[nH]ccc23)cc1	inactive: 0	inactive: 0	inactive: 0	inactive: 0	inactive: 0	inactive: 0	inactive: 0	inactive: 0	inactive: 0	inactive: 0	inactive: 0	inactive: 0	inactive: 0	inactive: 0	inactive: 0	inactive: 0	inactive: 0	inactive: 0	0	0																				
CN1CCCN(C(=O)c2cccc(-c3ccc(/C=C4/C(=O)Nc5ccc(Cl)cc54)o3)c2)CC1 [CX-6258 (hydrochloride)]																					inactive: 0	inactive: 0	inactive: 0	inactive: 0	inactive: 0	inactive: 0	inactive: 0	inactive: 0	inactive: 0	inactive: 0	inactive: 0	inactive: 0	inactive: 0	inactive: 0	inactive: 0	inactive: 0	inactive: 0	inactive: 0	0	0
CCS(=O)(=O)N1CCN(c2ccc(Nc3ncc(C(N)=O)c(NC4CC4)n3)cc2)CC1 [Cerdulatinib (hydrochloride)]	inactive: 0	inactive: 0	inactive: 0	inactive: 0	inactive: 0	inactive: 0	inactive: 0	inactive: 0	inactive: 0	inactive: 0	inactive: 0	inactive: 0	inactive: 0	inactive: 0	active: 1	inactive: 0	inactive: 0	inactive: 0	0	4																				
COCCOc1cc(F)c2c(Nc3ccc(NC(=O)Cn4cc(C(C)C)nn4)cc3)ncnc2c1 [AZD3229 Tosylate]	inactive: 0	inactive: 0	inactive: 0	inactive: 0	inactive: 0	inactive: 0	inactive: 0	inactive: 0	inactive: 0	inactive: 0	inactive: 0	inactive: 0	inactive: 0	inactive: 0	inactive: 0	inactive: 0	inactive: 0	inactive: 0	0	0																				
CN(C)C/C=C/C(=O)Nc1cc2c(Nc3ccc(F)c(Cl)c3)ncnc2cc1O[C@H]1CCOC1 [Afatinib (dimaleate)]																					inactive: 0	inactive: 0	inactive: 0	inactive: 0	inactive: 0	inactive: 0	inactive: 0	inactive: 0	inactive: 0	inactive: 0	inactive: 0	inactive: 0	inactive: 0	inactive: 0	inactive: 0	inactive: 0	inactive: 0	inactive: 0	0	0
CCCC(=O)Nc1ncnc2c1ncn2[C@@H]1O[C@@H]2COP(=O)(O)O[C@H]2[C@H]1OC(=O)CCC [Bucladesine (sodium)]	inactive: 0	inactive: 0	inactive: 0	inactive: 0	inactive: 0	inactive: 0	inactive: 0	inactive: 0	inactive: 0	inactive: 0	inactive: 0	inactive: 0	inactive: 0	inactive: 0	inactive: 0	inactive: 0	inactive: 0	inactive: 0	0	0																				
O=C(Nc1cnn2ccc(N3CCC[C@@H]3c3cc(F)ccc3F)nc12)N1CC[C@H](O)C1 [Larotrectinib]	inactive: 0	inactive: 0	inactive: 0	inactive: 0	inactive: 0	inactive: 0	inactive: 0	inactive: 0	inactive: 0	inactive: 0	inactive: 0	inactive: 0	inactive: 0	inactive: 0	inactive: 0	inactive: 0	inactive: 0	inactive: 0	0	0																				
COc1cc2c(cc1OC)-c1c(C)c3ccc(OC)c(OC)c3c[n+]1CC2 [Dehydrocorydaline (chloride)]	inactive: 0	inactive: 0	inactive: 0	inactive: 0	inactive: 0	inactive: 0	inactive: 0	inactive: 0	inactive: 0	inactive: 0	inactive: 0	inactive: 0	inactive: 0	inactive: 0	inactive: 0	inactive: 0	inactive: 0	inactive: 0	0	0																				
C=CC(=O)Nc1cc(Nc2nccc(-c3cn(C4CC4)c4ccccc34)n2)c(OC)cc1N(C)CCN(C)C [Almonertinib]																					inactive: 0	inactive: 0	inactive: 0	inactive: 0	inactive: 0	inactive: 0	inactive: 0	inactive: 0	inactive: 0	inactive: 0	inactive: 0	inactive: 0	inactive: 0	inactive: 0	inactive: 0	inactive: 0	inactive: 0	inactive: 0	0	0
CC(=O)N[C@H](Cc1ccc(O)cc1)C(=O)N[C@H](CCCN=C(N)N)C(=O)N[C@H](Cc1ccccc1)C(N)=O	inactive: 0	inactive: 0	inactive: 0	inactive: 0	inactive: 0	inactive: 0	inactive: 0	inactive: 0	inactive: 0	inactive: 0	inactive: 0	inactive: 0	inactive: 0	inactive: 0	inactive: 0	inactive: 0	inactive: 0	inactive: 0	0	0																				
CS(=O)(=O)N1CCN(Cc2cc3nc(-c4cccc5[nH]ncc45)nc(N4CCOCC4)c3s2)CC1 [Pictilisib]	inactive: 0	inactive: 0	inactive: 0	inactive: 0	inactive: 0	inactive: 0	inactive: 0	inactive: 0	inactive: 0	inactive: 0	inactive: 0	inactive: 0	inactive: 0	inactive: 0	inactive: 0	inactive: 0	inactive: 0	inactive: 0	0	0																				
CN1CCCN(C(=O)c2cccc(-c3ccc(/C=C4/C(=O)Nc5ccc(Cl)cc54)o3)c2)CC1 [CX-6258 (hydrochloride hydrate)]																					inactive: 0	inactive: 0	inactive: 0	inactive: 0	inactive: 0	inactive: 0	inactive: 0	inactive: 0	inactive: 0	inactive: 0	inactive: 0	inactive: 0	inactive: 0	inactive: 0	inactive: 0	inactive: 0	inactive: 0	inactive: 0	0	0

From the supplement of paper PMC12823440, “Inhibitors supercharge kinase turnover through native proteolytic circuits” (Nature, 2025)
